# These are yes or no findings as the source states them, for the method shown. In cells and extracts the contact can be indirect. Some results given as binding are weak or reduced against the parent protein; the word gives no strength. Tags and fused reporters may be left off the sequences shown.
# Sequences of proteins named here, by UniProt entry; tags and fusion partners are left off. Residues count along the entry.
# UniProt P98161, residues 24-4303: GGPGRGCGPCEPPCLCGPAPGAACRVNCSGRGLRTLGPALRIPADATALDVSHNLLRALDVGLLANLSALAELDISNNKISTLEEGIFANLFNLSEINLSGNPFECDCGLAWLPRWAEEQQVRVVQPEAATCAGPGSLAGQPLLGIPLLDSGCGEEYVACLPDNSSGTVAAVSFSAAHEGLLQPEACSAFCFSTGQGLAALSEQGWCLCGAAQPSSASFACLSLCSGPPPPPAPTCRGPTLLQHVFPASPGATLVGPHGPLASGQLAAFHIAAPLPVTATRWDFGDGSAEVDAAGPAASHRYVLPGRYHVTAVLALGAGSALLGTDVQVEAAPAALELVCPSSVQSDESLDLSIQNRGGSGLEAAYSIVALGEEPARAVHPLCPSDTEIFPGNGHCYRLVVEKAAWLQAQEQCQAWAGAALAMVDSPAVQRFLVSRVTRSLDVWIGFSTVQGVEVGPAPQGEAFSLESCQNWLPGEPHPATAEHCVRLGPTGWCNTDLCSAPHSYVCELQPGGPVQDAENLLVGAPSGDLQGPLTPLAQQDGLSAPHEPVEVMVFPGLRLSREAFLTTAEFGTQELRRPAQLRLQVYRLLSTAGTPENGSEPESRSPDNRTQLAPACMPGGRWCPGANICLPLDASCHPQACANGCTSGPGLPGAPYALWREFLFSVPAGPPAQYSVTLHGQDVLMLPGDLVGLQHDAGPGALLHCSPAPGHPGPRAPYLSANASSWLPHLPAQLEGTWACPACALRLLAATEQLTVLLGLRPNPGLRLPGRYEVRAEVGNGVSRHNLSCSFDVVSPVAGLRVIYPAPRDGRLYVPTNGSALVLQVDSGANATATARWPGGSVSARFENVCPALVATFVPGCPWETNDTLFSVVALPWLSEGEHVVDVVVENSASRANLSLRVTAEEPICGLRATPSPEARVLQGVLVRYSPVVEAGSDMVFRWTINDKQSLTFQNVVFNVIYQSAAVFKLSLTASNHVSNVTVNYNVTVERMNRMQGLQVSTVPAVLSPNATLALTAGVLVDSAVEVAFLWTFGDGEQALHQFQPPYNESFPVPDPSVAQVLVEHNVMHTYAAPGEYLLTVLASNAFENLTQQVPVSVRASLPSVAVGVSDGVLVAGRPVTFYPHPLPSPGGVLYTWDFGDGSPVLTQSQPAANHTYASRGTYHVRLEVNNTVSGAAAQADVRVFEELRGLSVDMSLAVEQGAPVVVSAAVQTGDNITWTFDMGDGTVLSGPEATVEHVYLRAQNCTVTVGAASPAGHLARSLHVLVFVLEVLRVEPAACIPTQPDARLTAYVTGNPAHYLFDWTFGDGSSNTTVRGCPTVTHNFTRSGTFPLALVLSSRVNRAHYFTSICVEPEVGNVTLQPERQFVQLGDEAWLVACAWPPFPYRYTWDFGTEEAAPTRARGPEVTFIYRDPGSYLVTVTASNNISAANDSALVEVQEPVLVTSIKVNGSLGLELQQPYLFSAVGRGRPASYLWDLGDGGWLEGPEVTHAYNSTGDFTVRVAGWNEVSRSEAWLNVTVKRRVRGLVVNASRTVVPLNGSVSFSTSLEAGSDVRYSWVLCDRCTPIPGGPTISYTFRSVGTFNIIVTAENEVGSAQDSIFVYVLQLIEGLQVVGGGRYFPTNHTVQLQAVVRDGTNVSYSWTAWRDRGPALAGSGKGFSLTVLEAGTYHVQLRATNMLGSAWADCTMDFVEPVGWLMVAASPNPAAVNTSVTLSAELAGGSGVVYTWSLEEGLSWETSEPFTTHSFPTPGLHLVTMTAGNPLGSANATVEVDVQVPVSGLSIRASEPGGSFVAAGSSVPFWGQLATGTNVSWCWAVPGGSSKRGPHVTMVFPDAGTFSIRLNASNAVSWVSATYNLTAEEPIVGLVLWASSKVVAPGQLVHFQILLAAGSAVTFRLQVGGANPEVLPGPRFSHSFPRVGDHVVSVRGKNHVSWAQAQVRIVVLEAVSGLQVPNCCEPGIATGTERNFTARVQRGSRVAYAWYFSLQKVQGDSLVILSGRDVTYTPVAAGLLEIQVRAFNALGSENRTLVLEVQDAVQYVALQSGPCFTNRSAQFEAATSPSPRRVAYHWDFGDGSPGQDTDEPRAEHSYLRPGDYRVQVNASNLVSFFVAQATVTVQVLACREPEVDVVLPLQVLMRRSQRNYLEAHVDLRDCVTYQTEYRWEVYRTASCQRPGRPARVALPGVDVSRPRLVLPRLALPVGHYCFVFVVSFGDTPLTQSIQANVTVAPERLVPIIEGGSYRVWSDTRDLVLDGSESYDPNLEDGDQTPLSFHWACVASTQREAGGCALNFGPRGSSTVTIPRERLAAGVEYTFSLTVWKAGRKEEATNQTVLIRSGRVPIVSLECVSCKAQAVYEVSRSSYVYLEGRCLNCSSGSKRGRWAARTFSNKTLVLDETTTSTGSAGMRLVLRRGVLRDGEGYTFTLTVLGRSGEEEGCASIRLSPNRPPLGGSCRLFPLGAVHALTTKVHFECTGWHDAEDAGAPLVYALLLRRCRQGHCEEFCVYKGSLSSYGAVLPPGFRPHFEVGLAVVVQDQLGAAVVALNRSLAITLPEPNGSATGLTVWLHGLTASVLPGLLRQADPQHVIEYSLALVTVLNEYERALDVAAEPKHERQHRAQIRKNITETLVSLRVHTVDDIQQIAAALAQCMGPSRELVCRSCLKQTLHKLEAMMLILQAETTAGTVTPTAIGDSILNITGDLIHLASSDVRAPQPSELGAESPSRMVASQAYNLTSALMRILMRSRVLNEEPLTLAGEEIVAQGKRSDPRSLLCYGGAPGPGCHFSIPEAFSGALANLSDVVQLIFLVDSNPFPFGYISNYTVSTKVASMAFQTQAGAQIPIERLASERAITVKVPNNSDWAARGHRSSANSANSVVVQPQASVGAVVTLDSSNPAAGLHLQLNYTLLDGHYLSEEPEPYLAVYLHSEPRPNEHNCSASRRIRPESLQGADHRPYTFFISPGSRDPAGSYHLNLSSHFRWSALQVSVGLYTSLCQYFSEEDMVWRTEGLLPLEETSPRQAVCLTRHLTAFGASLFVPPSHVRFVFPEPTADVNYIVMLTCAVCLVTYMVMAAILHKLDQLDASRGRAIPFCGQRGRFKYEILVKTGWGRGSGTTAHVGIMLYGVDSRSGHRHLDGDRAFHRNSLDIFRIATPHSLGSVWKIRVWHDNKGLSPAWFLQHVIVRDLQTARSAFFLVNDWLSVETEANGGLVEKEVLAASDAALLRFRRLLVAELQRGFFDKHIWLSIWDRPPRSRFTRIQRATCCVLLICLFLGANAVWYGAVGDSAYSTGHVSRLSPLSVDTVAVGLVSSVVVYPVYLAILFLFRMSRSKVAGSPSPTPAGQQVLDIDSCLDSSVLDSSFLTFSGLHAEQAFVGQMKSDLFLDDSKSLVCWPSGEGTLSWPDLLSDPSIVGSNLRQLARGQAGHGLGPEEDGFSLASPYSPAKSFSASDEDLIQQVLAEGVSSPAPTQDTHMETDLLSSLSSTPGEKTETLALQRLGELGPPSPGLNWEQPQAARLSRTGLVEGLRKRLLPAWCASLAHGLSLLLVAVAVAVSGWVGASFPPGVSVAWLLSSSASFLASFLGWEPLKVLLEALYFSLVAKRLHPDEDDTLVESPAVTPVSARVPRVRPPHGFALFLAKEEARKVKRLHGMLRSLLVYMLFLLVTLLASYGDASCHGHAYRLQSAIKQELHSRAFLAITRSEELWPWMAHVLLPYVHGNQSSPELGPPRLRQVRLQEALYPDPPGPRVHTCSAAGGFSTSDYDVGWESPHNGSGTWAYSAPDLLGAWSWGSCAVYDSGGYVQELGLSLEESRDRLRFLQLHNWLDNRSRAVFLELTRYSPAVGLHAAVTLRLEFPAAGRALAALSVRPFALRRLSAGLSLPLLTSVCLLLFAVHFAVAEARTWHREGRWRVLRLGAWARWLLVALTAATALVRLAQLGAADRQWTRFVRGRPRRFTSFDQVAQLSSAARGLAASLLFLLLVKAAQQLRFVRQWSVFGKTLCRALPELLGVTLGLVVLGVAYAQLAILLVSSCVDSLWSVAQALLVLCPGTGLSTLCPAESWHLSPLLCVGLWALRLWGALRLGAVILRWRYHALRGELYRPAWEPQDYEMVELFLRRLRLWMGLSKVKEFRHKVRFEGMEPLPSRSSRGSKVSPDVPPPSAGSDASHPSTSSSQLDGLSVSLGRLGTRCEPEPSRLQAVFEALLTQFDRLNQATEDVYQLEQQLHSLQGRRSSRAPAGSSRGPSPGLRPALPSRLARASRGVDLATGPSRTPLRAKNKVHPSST
# B1: full-length FLAG-ARHGAP35 (protein, UniProt Q9NRY4 1-1499)
# chain: MMMARKQDVRIPTYNISVVGLSGTEKEKGQCGIGKSCLCNRFVRPSADEFHLDHTSVLSTSDFGGRVVNNDHFLYWGEVSRSLEDCVECKMHIVEQTEFIDDQTFQPHRSTALQPYIKRAAATKLASAEKLMYFCTDQLGLEQDFEQKQMPDGKLLVDGFLLGIDVSRGMNRNFDDQLKFVSNLYNQLAKTKKPIVVVLTKCDEGVERYIRDAHTFALSKKNLQVVETSARSNVNVDLAFSTLVQLIDKSRGKTKIIPYFEALKQQSQQIATAKDKYEWLVSRIVKNHNENWLSVSRKMQASPEYQDYVYLEGTQKAKKLFLQHIHRLKHEHIERRRKLYLAALPLAFEALIPNLDEIDHLSCIKAKKLLETKPEFLKWFVVLEETPWDATSHIDNMENERIPFDLMDTVPAEQLYEAHLEKLRNERKRVEMRRAFKENLETSPFITPGKPWEEARSFIMNEDFYQWLEESVYMDIYGKHQKQIIDKAKEEFQELLLEYSELFYELELDAKPSKEKMGVIQDVLGEEQRFKALQKLQAERDALILKHIHFVYHPTKETCPSCPACVDAKIEHLISSRFIRPSDRNQKNSLSDPNIDRINLVILGKDGLARELANEIRALCTNDDKYVIDGKMYELSLRPIEGNVRLPVNSFQTPTFQPHGCLCLYNSKESLSYVVESIEKSRESTLGRRDNHLVHLPLTLILVNKRGDTSGETLHSLIQQGQQIASKLQCVFLDPASAGIGYGRNINEKQISQVLKGLLDSKRNLNLVSSTASIKDLADVDLRIVMCLMCGDPFSADDILFPVLQSQTCKSSHCGSNNSVLLELPIGLHKKRIELSVLSYHSSFSIRKSRLVHGYIVFYSAKRKASLAMLRAFLCEVQDIIPIQLVALTDGAVDVLDNDLSREQLTEGEEIAQEIDGRFTSIPCSQPQHKLEIFHPFFKDVVEKKNIIEATHMYDNAAEACSTTEEVFNSPRAGSPLCNSNLQDSEEDIEPSYSLFREDTSLPSLSKDHSKLSMELEGNDGLSFIMSNFESKLNNKVPPPVKPKPPVHFEITKGDLSYLDQGHRDGQRKSVSSSPWLPQDGFDPSDYAEPMDAVVKPRNEEENIYSVPHDSTQGKIITIRNINKAQSNGSGNGSDSEMDTSSLERGRKVSIVSKPVLYRTRCTRLGRFASYRTSFSVGSDDELGPIRKKEEDQASQGYKGDNAVIPYETDEDPRRRNILRSLRRNTKKPKPKPRPSITKATWESNYFGVPLTTVVTPEKPIPIFIERCIEYIEATGLSTEGIYRVSGNKSEMESLQRQFDQDHNLDLAEKDFTVNTVAGAMKSFFSELPDPLVPYNMQIDLVEAHKINDREQKLHALKEVLKKFPKENHEVFKYVISHLNKVSHNNKVNLMTSENLSICFWPTLMRPDFSTMDALTATRTYQTIIELFIQQCPFFFYNRPITEPPGARPSSPSAVASTVPFLTSTPVTSQPSPPQSPPPTPQSPMQPLLPSQLQAEHTL
# Biological target: full-length V5-PC1 (polycystin-1) (UniProt P98161)
# Assay: co-IP; FLAG-ARHGAP35 and V5-PC1 coexpressed in HEK293 cells; lysis buffer 50 mM Tris, 0.14 M NaCl, 1% Triton X-100, 0.5% NP40; which protein was precipitated is not told
binder,measurement,value
B1,binding,binds

# Reference: PMC7455122
